In PMC10151503 one finds binding result and Kd data, which are given here for 2 sequences.

By UniProt entry, the sequences of proteins in these tests, tags left out. Where a name states a change or a piece, a line headed by the entry shows the natural chain unless it says otherwise.
UniProt P48781, whole entry K31A/E35A: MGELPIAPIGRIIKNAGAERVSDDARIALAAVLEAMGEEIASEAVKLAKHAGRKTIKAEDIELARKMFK
UniProt P19267: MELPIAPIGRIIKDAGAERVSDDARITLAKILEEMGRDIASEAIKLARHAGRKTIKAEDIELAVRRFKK

Construct, isoform or probe ends are uncertain for at least one entry. For part of these data: Weaker means in comparison with the reference protein, sequence or condition of that experiment.

Data set [1] deals with HMfA K31A E35A (Methanothermus fervidus) (UniProt P48781). The data set can be described thus: MST. The settings on record: affinity too low to be fitted (n.a.); MST: 50 mM Tris-HCl pH 8, 75 mM KCl, 20 nM DNA (40 nM diluted 1:1), 5 min at room temperature (0.2% Tween20 where noted); recombinant protein; label: 5' Cy5 top strand.
The target of data set [2] is HMfB (Methanothermus fervidus) (UniProt P19267). Nature of the data set: MST. The settings on record: 0.2% Tween20, Hill h 1.22 ± 0.15; MST: 50 mM Tris-HCl pH 8, 75 mM KCl, 20 nM DNA (40 nM diluted 1:1), 5 min at room temperature (0.2% Tween20 where noted); recombinant protein; label: 5' Cy5 top strand.

With “GGATCCCTGTCGGCACAGTTGAGCGATCAAAAACGCCGTAGAACGCTTTAATTGATAATCAAAGGCCGCAGAGAGCTC (double strand) [Clone20 78 bp]”, in data set [1], the binding result was “binds more weakly”.

The Kd is the equilibrium constant for the complex coming apart. As for “CGGCGCAAATTCGTGACCAGTTGCATCAGCTGCGTGAGCTGTTTATCGCAGCATCGTAACAGGATAGTGAAGAAGACT (double strand) [Nonspecific 78 bp]”, in data set [2], the Kd was determined as 19.6 µM. Besides, the binding result in data set [1] is “binds more weakly”.
